# Laboratory results reported in the supplement of paper PMC3334620.
# The full ranking holds about 33,000 sequences; the median of “E-score (-0.5 to 0.5)” is about -8e-05, and the highest 2% start at about 0.23. The list shows a part of the results.
# Molecular target: T1, Nrg2 (UniProt P38082)
# T1 sequence: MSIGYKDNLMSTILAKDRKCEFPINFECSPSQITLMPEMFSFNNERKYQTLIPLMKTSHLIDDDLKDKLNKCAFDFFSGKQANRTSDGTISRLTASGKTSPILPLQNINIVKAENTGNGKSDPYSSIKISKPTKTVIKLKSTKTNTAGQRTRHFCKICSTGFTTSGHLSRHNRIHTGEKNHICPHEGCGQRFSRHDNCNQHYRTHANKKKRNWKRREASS
# Test: PBM E-score (8-mer binding enrichment) (E-score (-0.5 to 0.5)); higher = stronger / more preferred TF binding
# Settings: protein concentration: 100 nM; construct: GST-full length
# Outline: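 The E-score, a modified Wilcoxon-Mann-Whitney statistic, was computed by the Universal PBM Analysis Suite for every ungapped eight-base word pooled with its reverse complement. Scans behind it were normalised with masliner after bound GST-tagged yeast transcription factors were detected with fluorescent anti-GST. The proteins, at about 100-200 nM, had been applied to universal all-10-mer Agilent arrays made double-stranded by primer extension.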
row,Sequence,PBM E-score
1,CTGGCACA,-0.0575
2,ATTTTCGC,0.131
3,GCGTAGTA,0.00603
4,AATAGCAC,-0.226
5,CAAATGAC,0.0271
6,GTCATCAA,-0.0631
7,GCCAGGCC,0.0129
8,AACTCAAC,0.132
9,ACCTCGGA,0.131
10,AAGCGAGA,-0.0317
11,GACCCGGC,-0.162
12,GCGGCACA,0.0179
13,GGTTCGGA,-0.015
14,CACGTTGA,-0.0134
15,TCTACAGA,-0.165
16,ATTTAACC,0.0679
17,GTTTAGCA,0.0112
18,ATGAGCGA,0.128
19,AGCAAACG,-0.151
20,CACGCACG,0.0453
21,ACAGAGAT,0.0412
22,ATTTTGCC,-0.0941

row,Sequence,PBM E-score
1,ATTGGGTG,0.16
2,TGCAGTAA,0.131
3,ACCGTGGG,-0.237
4,CATCGTGG,-0.0786
5,ACTAGGCA,-0.136
6,GTCCGGAA,0.0127
7,AGGTCGCA,0.0731
8,GTTTCAAA,0.0234
9,AGGAGGGA,-0.231
10,AGATAAAT,0.0671
11,GACACCAC,-0.115
12,AATGTAGC,-0.0343
13,ACATACTC,-0.161
14,CGTAGTGA,-0.131
15,ACGGCAGC,0.0388
16,CAGGCGGA,0.164
17,GTCACTCA,0.157
18,TAAAGAGA,0.0364
19,GCAATCTA,0.00861
20,ACTGCGTG,-0.235
21,TGATAACA,0.103
22,CAGCGATC,-0.0507

# Reformatted with tabs: entries from further up
row	Sequence	PBM E-score
1	ATTGGGTG	0.16
8	GTTTCAAA	0.0234
17	GTCACTCA	0.157

# Not a retest: an excerpt of the list.
row,Sequence,PBM E-score
12,AATGTAGC,-0.0343
13,ACATACTC,-0.161

# Remaining list, next part:

row,Sequence,PBM E-score
1,GCAGCTCA,-0.00091
2,CCACCTGA,0.0302
3,ACGGCCTG,0.0146
4,GGAACGCC,-0.209
5,AAAATCAA,0.0602
6,AACACCGC,-0.0853
7,AGTTCGGA,0.0505
8,TGTCTTAA,0.1
9,ATCACTAC,0.0691
10,ATTTGCAA,0.201
11,GAACTGAC,0.0406
12,CTGGTCTC,-0.207
13,ACGTTGCC,-0.198
14,ACCCATTG,-0.131
15,GCAACCAC,0.0541
16,AGTTGGAG,0.111
17,ACAACGCA,0.0498
18,CCACTAAA,-0.0129
19,AATACCCC,0.0366
20,CGCCTCAG,-0.171
21,ATTTGATC,0.0379
22,CCTATCTA,0.0132

row,Sequence,PBM E-score
1,AAAACCAG,0.207
2,ATGGAATA,0.235
3,CCTAGAAC,0.131
4,TAATCCCA,-0.0844
5,ATCCGTCG,0.00117
6,GATTGGAC,0.0358
7,ACGGTGAT,0.0582
8,AGCAACAA,0.119
9,CAACGCGC,0.215
10,AATATCTC,0.0954
11,GTCCTCGA,0.153
12,ACAGAGCA,0.0833
13,ACTCATTA,0.268
14,ATATTGCG,0.119
15,AAGAAATC,-0.0386
16,CGCAGGTC,-0.0995
17,CCCCGTGA,0.0752
18,GAGAATAA,0.128
19,AAACTAGC,-0.0439
20,GGATAAAC,0.133
